Screen size: about 300,000 compounds; about 3,700 (1.2%) were called active. The inconclusive results got no clear call from the source; some entries with a clear call stand among them for comparison. The call rests on the fitted dose curve; tested in HEK293 cells. Potencies of inconclusive entries are doubtful fits and often do not repeat.
Assay: qHTS for Inhibitors of binding or entry into cells for Lassa Virus; further: nearly all actives have a fitted effect of over 50% in size
Details: Lassa virus pseudotype entry inhibition, cell reporter; series mostly up to 37.9 µM
Potency means the concentration at half of the fitted maximal effect.

Row | SMILES | Potency
1 | Cc1ccc(CN2CCSc3ccc(C(=O)N4CCN(c5ncccn5)CC4)cc32)cc1 | inconclusive: 32.6 µM [inhibitor, single point]
2 | COc1ccc(NC(=S)NCc2ccco2)cc1 | inactive
3 | Cc1ccc(-n2nnnc2CNC(=O)c2ccccc2S(C)(=O)=O)cc1C | inconclusive: 22.4 µM [activator, partial curve, poor fit]
4 | CCOC(=O)C1=C(C)NC(=O)NC1/C=C\c1ccccc1 (configuration not stated) | inconclusive: 0.355 µM [inhibitor, partial curve, poor fit]
5 | OC(COc1ccccc1)CN1CCC(Cc2ccccc2)CC1 (configuration not stated) | inconclusive: 35.5 µM [inhibitor, partial curve, poor fit]
6 | COc1ccc(NC(=O)C[C@H]2C(=O)N(CCc3ccccc3)C[C@@H]2Cc2ccccc2)cc1 | active: 15.8 µM
7 | Cc1ccc(S(=O)(=O)NCCC(=O)N2CCC(Cc3ccccc3)CC2)cc1 | inconclusive: 10 µM [inhibitor, single point]
8 | COC(=O)N/N=C/c1ccc(-c2ccccc2Cl)o1 | inconclusive: 35.5 µM [inhibitor, single point]
9 | O=C1C(Nc2ccc(O)cc2)=C/C(=N/S(=O)(=O)c2cccs2)c2ccccc21 | active: 3.55 µM
10 | CCn1nc(C)c(/C=N/NC(=O)c2ccoc2C)c1C | inconclusive: 11.2 µM [inhibitor, partial curve, poor fit]
11 | COC(=O)c1cn(C(=O)c2ccc(C)c(C)c2)c2ccccc12 | inconclusive: 1.58 µM [inhibitor, partial curve, poor fit]
12 | COC(=O)c1cccc(Nc2nc(-c3ccncc3)nc3ccccc23)c1 | inconclusive: 3.16 µM [inhibitor, single point]
13 | Cc1cc(S(=O)(=O)Nc2ccc(-c3ccc(N4CCCCC4)nn3)cc2)c(C)cc1Cl | inconclusive: 35.5 µM [inhibitor, single point]
14 | COc1cccc(-c2nn(C)c3sc(C(=O)NCCc4ccc(Cl)cc4)cc23)c1 | inactive
15 | COc1ccc(-n2nc(C(=O)Nc3ccccc3OC)c3c4ccccc4n(C)c3c2=O)cc1Cl | inconclusive: 7.94 µM [activator, partial curve]
16 | Cc1[nH]n(-c2cccc(Cl)c2)c(=O)c1C=NCc1ccco1 | inconclusive: 7.3 µM [activator, partial curve, poor fit]
17 | CCC(OC(=O)CCc1nc2ccccc2[nH]c1=O)C(=O)c1ccccc1 (configuration not stated) | inconclusive: 3.26 µM [inhibitor, partial curve, poor fit]
18 | CCOc1ccc(NC(=O)CSc2nnc(-c3ccccc3Cl)n2Cc2ccco2)cc1 | inconclusive: 7.94 µM [inhibitor, full curve, poor fit]
19 | Cc1ccc(CSc2nc(-c3cccs3)ccc2C#N)cc1 | inactive
20 | CC(Sc1nnc2c(n1)[nH]c1ccccc12)C(=O)N(C)C1CCCCC1 (configuration not stated) | inconclusive: 11.2 µM [inhibitor, partial curve, poor fit]
21 | O=C(Cc1ccccc1)NCC(=O)Nc1cc(Cl)ccc1Cl | inconclusive: 14.1 µM [inhibitor, single point]
22 | O=C(CSc1nc2ccccc2[nH]1)N1CCN(c2ccccc2)CC1 | inconclusive: 25.9 µM [activator, single point]
23 | O=[N+]([O-])c1ccc(Oc2ccc(F)cc2Br)c2ccncc12 | inconclusive: 10 µM [inhibitor, partial curve]

Row | SMILES | Potency
24 | O=C(NCc1cccc(Cl)c1)c1cc(COc2ccc3ncccc3c2)on1 | inconclusive: 20 µM [inhibitor, single point]
25 | C[n+]1ccccc1/C=C1\Sc2ccccc2N1CCO | inconclusive: 8.91 µM [inhibitor, partial curve, poor fit]
26 | Cc1ccc(C(=O)n2nc(C)c(S(=O)(=O)N3CCOCC3)c2C)cc1 | inactive
27 | Cc1cc2nc(-c3ccc(SCC(=O)Nc4ccc5c(c4)OCCO5)nc3)[nH]c2cc1C | inactive
28 | Cc1nc(CS(=O)(=O)c2ccccc2)cc(N2CCN(c3ccccc3F)CC2)n1 | inconclusive: 11.2 µM [inhibitor, partial curve]
29 | CC(C)(O)/C=C/C(=O)C(C)(O)C1C(O)CC2(C)C3CC=C4C(C=C(O)C(=O)C4(C)C)C3(C)C(=O)CC12C (configuration not stated) | active: 0.316 µM
30 | CCCNc1nc(C)nc2c1cnn2CCc1ccccc1 | inactive
31 | COc1ccc(CCN(C(=O)C(F)(F)F)C(C(=O)NC2CCCCC2)c2ccc(C)s2)cc1 (configuration not stated) | inconclusive: 4.11 µM [inhibitor, partial curve, poor fit]
32 | Cc1cccc(-n2c3nc(=O)[nH]c(=O)c-3cc3c(Cl)cccc32)c1C | inactive
33 | COc1ccc(C(=O)NCc2cn3c(C)csc3n2)cc1OC | inconclusive: 1.83 µM [inhibitor, partial curve]
34 | COc1ccc(C)cc1S(=O)(=O)N1CCN(c2cccc(Cl)c2)CC1 | inactive
35 | COc1cc2oc(=O)c(CC(=O)N3CCCCC3)c(C)c2cc1Cl | inactive
36 | CNCCCc1ccccc1 | inactive
37 | CCOc1cccc2cc(-c3nc4ccc(C(=O)O)cc4[nH]3)c(=O)oc12 | inactive
38 | S=C(c1ccc2c(c1)OCO2)N1CCN(c2cccc(Cl)c2)CC1 | inconclusive: 6.31 µM [inhibitor, single point]
39 | CN(c1ccc(F)cc1)S(=O)(=O)c1ccc(Cl)c(C(=O)NCC2CCCO2)c1 (configuration not stated) | inactive
40 | CN1Cc2cccnc2N(C)Cc2cc(Cl)ccc21 | inconclusive: 29.1 µM [inhibitor, partial curve, poor fit]
41 | O=S(=O)(NC1CCCCC1Nc1ccc(Cl)cc1)c1ccccc1 (configuration not stated) | inconclusive: 11.2 µM [inhibitor, partial curve, poor fit]
42 | Cc1cc(S(=O)(=O)Nc2ccc3cn[nH]c3c2)c(C)cc1Cl | inconclusive: 35.5 µM [inhibitor, partial curve, poor fit]
43 | O=c1c(Br)ccc(Br)cc1Br | inconclusive: 6.31 µM [inhibitor, partial curve, poor fit]
44 | CC(=O)Nc1ccc2oc(-c3ccccc3Br)nc2c1 | inconclusive: 15.8 µM [inhibitor, single point]
45 | O=C(NC(=S)NNC(=O)c1cccs1)c1ccc(Br)o1 | inconclusive: 4.61 µM [inhibitor, partial curve, poor fit]
46 | COc1ccc(NC(=O)c2oc3ccccc3c2NC(=O)c2cc3ccccc3o2)cc1 | inactive

3 entries from above, ordered by length of the SMILES, high to low.
Row | SMILES | Potency
42 | Cc1cc(S(=O)(=O)Nc2ccc3cn[nH]c3c2)c(C)cc1Cl | inconclusive: 35.5 µM [inhibitor, partial curve, poor fit]
33 | COc1ccc(C(=O)NCc2cn3c(C)csc3n2)cc1OC | inconclusive: 1.83 µM [inhibitor, partial curve]
25 | C[n+]1ccccc1/C=C1\Sc2ccccc2N1CCO | inconclusive: 8.91 µM [inhibitor, partial curve, poor fit]

Later entries

Row | SMILES | Potency
47 | CCC1(c2ccccc2)NC(=O)N(CC(=O)Nc2cccc(S(=O)(=O)N3CCCCC3)c2)C1=O (configuration not stated) | inactive
48 | Clc1ccc(-c2cc(C3CCNCC3)[nH]n2)c(Cl)c1 | inconclusive: 0.631 µM [activator, full curve, poor fit]
49 | O=[N+]([O-])c1ccc(O)c(C(C#Cc2ccccc2)N2CCOCC2)c1 (configuration not stated) | inconclusive: 25.1 µM [inhibitor, single point]
50 | Cc1ccccc1S(=O)(=O)Cc1ccc(C(=O)NC2CCCCC2)o1 | inconclusive: 11.2 µM [inhibitor, partial curve, poor fit]
51 | CCOc1ccc(OCC)c(S(=O)(=O)N2CCCCC2C)c1 (configuration not stated) | inconclusive: 29.1 µM [inhibitor, single point]
52 | Cc1ccc(SCc2nc(-c3ccccc3)no2)cc1 | inactive
53 | O=C(Nc1ccccc1O)c1c(O)c2c([nH]c1=O)CCCC2 | inconclusive: 22.4 µM [inhibitor, single point]
54 | CSCC[C@H](NC(=O)c1cccs1)C(=O)N1CCC2(CC1)NCCc1[nH]cnc12 | inconclusive: 12.6 µM [activator, partial curve, poor fit]
55 | CC(C)[C@H](NC(=O)c1ccccc1)C(=O)OCC(=O)c1ccccc1F | inactive
56 | Cc1ccc(N/C(SCc2ccccc2C)=C(/C#N)C(=O)NCc2ccco2)cc1C | inconclusive: 29.1 µM [inhibitor, single point]
57 | O=C(NC(NC(=S)Nc1c(Cl)cccc1Cl)C(Cl)(Cl)Cl)c1cccc([N+](=O)[O-])c1 (configuration not stated) | inconclusive: 10.3 µM [inhibitor, partial curve]
58 | C/C(=N\NC(=O)c1ccc(CN2CCOCC2)cc1)c1ccc(NC(=O)c2ccccc2)cc1 | inconclusive: 0.891 µM [inhibitor, full curve, poor fit]
59 | O=C(CCCc1c[nH]c2ccccc12)NCCc1c[nH]c2ccccc12 | inconclusive: 22.4 µM [inhibitor, single point]
60 | COc1ccc(S(=O)(=O)N2CCOC2CNC(=O)C(=O)NCCc2c[nH]c3ccccc23)cc1C (configuration not stated) | inconclusive: 8.2 µM [inhibitor, partial curve, poor fit]
61 | Cc1ccc(NC(=O)c2ccccc2Br)cc1S(=O)(=O)N(C)C | inactive
62 | O=S(=O)(Nc1cccc(-c2nc3cccnc3s2)c1)c1ccc2c(c1)CCCC2 | inactive
63 | COc1ccc2c(c1)[nH]c1c(N3CCN(Cc4ccc5c(c4)OCO5)CC3)ncnc12 | inconclusive: 20 µM [inhibitor, single point]
64 | O=C(COc1ccc(F)cc1)Nc1ccc2nc(SCC(=O)N3CCc4ccccc43)sc2c1 | inactive
65 | c1cncc(CSc2ccc(-c3ccc4c(c3)OCO4)nn2)c1 | inconclusive: 31.6 µM [inhibitor, single point]
66 | O=C1CC(N2CCc3ccccc32)C(=O)N1c1ccccc1 (configuration not stated) | inconclusive: 35.5 µM [activator, single point]
67 | Cc1oc2ncn(CC(C)C)c(=O)c2c1C(=O)NCCCN1CCCCC1 | inconclusive: 6.31 µM [activator, partial curve, poor fit]

Source: PubChem BioAssay AID540256 (National Center for Advancing Translational Sciences (NCATS), 2011)
